Results on one substance are retold here after article PMC5586343, “t‐Darpp is an elongated monomer that binds calcium and is phosphorylated by cyclin‐dependent kinases 1 and 5” (FEBS Open Bio, 2017).

Amino acid sequences for entries named in this document (tags omitted). Residues count along the entry.
UniProt P02769, residues 25-607: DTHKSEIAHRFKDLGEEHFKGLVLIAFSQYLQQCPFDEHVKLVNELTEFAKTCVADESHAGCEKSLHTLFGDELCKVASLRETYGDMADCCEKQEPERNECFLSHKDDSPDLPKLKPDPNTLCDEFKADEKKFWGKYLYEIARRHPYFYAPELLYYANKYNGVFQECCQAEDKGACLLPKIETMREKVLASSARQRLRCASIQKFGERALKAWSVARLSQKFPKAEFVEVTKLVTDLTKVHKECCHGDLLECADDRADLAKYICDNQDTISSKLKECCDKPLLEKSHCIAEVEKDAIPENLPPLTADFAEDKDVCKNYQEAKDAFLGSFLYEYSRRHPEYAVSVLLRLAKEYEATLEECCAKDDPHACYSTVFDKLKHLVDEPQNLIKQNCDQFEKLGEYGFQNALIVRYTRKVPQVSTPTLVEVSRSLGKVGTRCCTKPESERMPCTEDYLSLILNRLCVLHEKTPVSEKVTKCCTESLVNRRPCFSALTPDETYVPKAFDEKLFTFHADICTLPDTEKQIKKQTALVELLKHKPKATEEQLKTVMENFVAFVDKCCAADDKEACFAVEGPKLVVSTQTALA

No constants are given. Whether binding was seen depends on the method and setting. Some entries that bind do so weakly or less than the wild type.

The target of this assay is Bovine serum albumin (bovine) (UniProt P02769). In words: native gel or EMSA; blue native gel electrophoresis, no denaturing or reducing agents; 5% stacking and 8% resolving gel, Bis‐Tris/HCl pH 7.0, 100 V, 4 °C; detected by Coomassie Blue; both purified.

Take “Bovine serum albumin (from UniProt P02769 25-607)”: the binding entry was “binds weakly”.
